Assay results as given in article PMC4735655.

By UniProt entry, the sequences of proteins in these tests, tags left out.
UniProt O14965: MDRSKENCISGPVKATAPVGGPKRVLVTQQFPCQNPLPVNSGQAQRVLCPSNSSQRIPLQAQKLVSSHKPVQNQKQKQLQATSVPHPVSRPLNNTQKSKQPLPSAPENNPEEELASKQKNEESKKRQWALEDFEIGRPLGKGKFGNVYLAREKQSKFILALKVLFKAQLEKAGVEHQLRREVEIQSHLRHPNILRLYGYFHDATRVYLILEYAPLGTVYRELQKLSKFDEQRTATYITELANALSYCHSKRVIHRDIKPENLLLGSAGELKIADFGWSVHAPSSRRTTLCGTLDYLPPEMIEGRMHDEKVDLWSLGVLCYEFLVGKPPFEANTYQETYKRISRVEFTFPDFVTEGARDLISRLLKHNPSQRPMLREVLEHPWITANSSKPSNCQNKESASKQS

Molecular target: AURKA-Flag (human) (UniProt O14965)
Experiment: affinity purification with mass spectrometry; SILAC: cells stably expressing AURKA-Flag (heavy D3-leucine) against Flag control cells (light), RIPA lysates mixed 1:1, anti-Flag M2 agarose, Flag peptide elution, LC-MS/MS

For “heterogeneous nuclear ribonucleoprotein K (hnRNP K), endogenous (from UniProt P61978 1-463)”, the binding was “binds”.

No constants are given. Whether binding was seen depends on the method and setting. In cells and extracts the contact can be indirect. These calls come from enrichment with a bait or labelling near it, and not all partners need be listed.
